PubChem BioAssay AID504784 | Drosophila RNAi Screening Center, 2011
The deposit covers about 17,000 reagents; this is a random part of those with a known target gene and a result. 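Each column is one replicate's B-score; the combined score over replicates was not deposited, so single values may mislead.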 A plus sign joins genes that one reagent is predicted to hit. Further read-outs or replicates are left out here. No sequences are given here.

Purpose: 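Fly genes whose silencing alters how much lipid cells keep in droplets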 (primary screen)
Cell system: Drosophila Kc167 embryonic cells
Reagents: long dsRNA against Drosophila genes, about 250 ng dsRNA per well
Duration: 4 days
Conditions: cells fed 400 µM oleic acid bound to BSA
Measurement: 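Microscope images give a droplet-to-nucleus area ratio, taken as log and converted to a screen-wide B-score; higher values mean greater lipid storage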
Direction: droplet/nuclear area B-score: higher = more stored lipid (overstorage)

gene | PubChem SID | droplet/nuclear area B-score, replicate 1 | droplet/nuclear area B-score, replicate 2
CG14356 (GeneID 41722) | SID104194611 | 0.0228 | 0.11
Sps1 (GeneID 36587) | SID104187341 | -0.17 | -0.0773
CG33342 (GeneID 2768684) | SID104193454 | -0.311 | 0.0154
CG10252 (GeneID 42794) | SID104194013 | -0.0913 | 0.643
Ranbp21 (GeneID 32970) | SID104199239 | 1.15 | 1.14
CG12259 (GeneID 43347) | SID104194278 | -0.0955 | -0.809
CG12259 (GeneID 43347) | SID104202638 | 0.728 | -0.206
Uqcc1 + CG9948 | SID104189482 | 0.617 | 0.887
CG34430 (GeneID 5740489) | SID104186291 | -1.44 | -0.0506
Dbp45A (GeneID 35917) | SID104187187 | 3.5 | 2.58
Pp1-Y2 (GeneID 3355173) | SID104201310 | -0.363 | 1.23
Dab (GeneID 39866) | SID104190932 | -0.0349 | -0.327
CG8093 (GeneID 36686) | SID104186870 | -0.604 | -0.184
Sgt1 (GeneID 40982) | SID104196311 | -1.76 | -2.14
mag (GeneID 40267) | SID104191579 | -0.818 | -0.34
Lztr1 (GeneID 31037) | SID104197968 | -0.456 | -0.343
Lztr1 (GeneID 31037) | SID104198439 | 0.743 | -0.265
Gr39a (GeneID 117346) | SID104181633 | 1.05 | -1.28
Gr39a (GeneID 117346) | SID104181634 | -0.628 | -0.0368
CG11406 (GeneID 37877) | SID104183802 | -0.644 | -0.0564
CG11406 (GeneID 37877) | SID104183900 | -1.29 | -0.0116
cathD (GeneID 45268) | SID104187380 | -0.0442 | 0.6
RpS29 + snoRNA:Psi18S-1275 | SID104196225 | 3.08 | 6.22
CG42337 (GeneID 40335) | SID104191478 | -0.864 | 0.588
CG42337 (GeneID 40335) | SID104191479 | -2.57 | -0.913
CG42337 (GeneID 40335) | SID104202456 | 2.15 | 1.73
Gyc88E (GeneID 41825) | SID104195339 | 0.981 | -0.911
dnt (GeneID 35207) | SID104183314 | -0.59 | 2.11
CG33339 (GeneID 2768681) | SID104202275 | -0.242 | -0.264
mRpS33 (GeneID 41991) | SID104194031 | 1.98 | 4.11
CG3491 (GeneID 34870) | SID104181726 | -1.07 | -0.699
sca (GeneID 36411) | SID104187469 | -1.03 | 1.36
Arl2 (GeneID 40993) | SID104193909 | -0.00141 | 1.9
CG15646 (GeneID 32501) | SID104199474 | -1.26 | -0.192

3 of these entries, set out differently:
| gene | PubChem SID | droplet/nuclear area B-score, replicate 1 | droplet/nuclear area B-score, replicate 2 |
| --- | --- | --- | --- |
| CG11406 (GeneID 37877) | SID104183802 | -0.644 | -0.0564 |
| CG11406 (GeneID 37877) | SID104183900 | -1.29 | -0.0116 |
| cathD (GeneID 45268) | SID104187380 | -0.0442 | 0.6 |
